Results deposited as PubChem BioAssay AID1259425 (University of Nebraska Medical Center, 2018)

Aim: 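Find knockdowns that reproduce the gene expression pattern seen when KSR1 is lost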 (primary screen)
Cell system: HCT116 human colon cancer cells
Knock-down reagent: siRNA pool against human genes, 50 nM siRNA
Detection: 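After 50 nM siRNA pool, branched-DNA assay measures six marker transcripts per well, minus blank, normalised to the geometric mean of two housekeeping transcripts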
Direction: BNIP3L mRNA: higher = more BNIP3L transcript after knockdown; NDRG1 mRNA: higher = more NDRG1 transcript after knockdown; BNIP3 mRNA: higher = more BNIP3 transcript after knockdown; ALDOC mRNA: higher = more ALDOC transcript after knockdown
In all, the deposit lists about 14,000 reagents; shown is a random part of them. Not all columns of the deposit are shown. Not stated in the record: the time to read-out.

gene symbol | PubChem SID | BNIP3L mRNA, set 1 | NDRG1 mRNA, set 1 | BNIP3 mRNA, set 1 | ALDOC mRNA, set 1
AOC1 | SID363992388 | 0.0678 | 0.378 | 0.274 | 0.0132
KDM7A | SID364005583 | 0.141 | 0.19 | 0.28 | 0.0357
MTHFD1 | SID363996818 | 0.188 | 0.176 | 0.481 | 0.0426
LAMB2 | SID363993490 | 0.0935 | 0.135 | 0.223 | 0.00871
NKX2-5 | SID363995371 | 0.08 | 0.138 | 0.338 | 0.0109
TTC4 | SID363995591 | 0.0661 | 0.231 | 0.23 | 0.0339
PROM1 | SID363996869 | 0.135 | 0.336 | 0.241 | 0.0377
MRGPRX2 | SID364004449 | 0.0503 | 0.0939 | 0.237 | 0.0378
CAPN15 | SID363996526 | 0.119 | 0.304 | 0.442 | 0.0118
COMMD8 | SID364000576 | 0.1 | 0.599 | 0.362 | 0.0717
OTP | SID364003769 | 0.166 | 0.382 | 0.299 | 0.0229
CD276 | SID364003340 | 0.0932 | 0.0867 | 0.474 | 0.0219
GFRA4 | SID364002365 | 0.124 | 0.496 | 0.269 | 0.0091
ACP2 | SID363992837 | 0.0683 | 0.288 | 0.33 | 0.022
SLC15A1 | SID363996010 | 0.105 | 0.709 | 0.172 | 0.0182
GUCY2D | SID363991516 | 0.149 | 0.24 | 0.232 | 0.0125
PSMB2 | SID363993951 | 0.567 | 0.839 | 0.33 | 0.0974
PBOV1 | SID364002159 | 0.164 | 0.554 | 0.294 | 0.0288
STARD10 | SID363997433 | 0.126 | 0.612 | 0.402 | 0.0136

2 of these entries, set out differently:
{"gene symbol":"MRGPRX2","PubChem SID":"SID364004449","BNIP3L mRNA, set 1":0.0503,"NDRG1 mRNA, set 1":0.0939,"BNIP3 mRNA, set 1":0.237,"ALDOC mRNA, set 1":0.0378}
{"gene symbol":"CAPN15","PubChem SID":"SID363996526","BNIP3L mRNA, set 1":0.119,"NDRG1 mRNA, set 1":0.304,"BNIP3 mRNA, set 1":0.442,"ALDOC mRNA, set 1":0.0118}

Next reagents follow:
gene symbol | PubChem SID | BNIP3L mRNA, set 1 | NDRG1 mRNA, set 1 | BNIP3 mRNA, set 1 | ALDOC mRNA, set 1
KIAA0825 | SID364005467 | 0.134 | 0.222 | 0.331 | 0.0163
AP4B1 | SID363997384 | 0.173 | 0.112 | 0.26 | 0.038
MAMDC4 | SID364005273 | 0.0899 | 0.166 | 0.317 | 0.0149
CCL5 | SID363994136 | 0.0942 | 0.282 | 0.285 | 0.0147
TSSK6 | SID364003756 | 0.138 | 0.196 | 0.342 | 0.0112
UBE2V2 | SID363994464 | 0.0765 | 0.25 | 0.188 | 0.047
CTSC | SID363993030 | 0.0524 | 0.0485 | 0.234 | 0.0145
RBM38 | SID364004968 | 0.0434 | 0.0414 | 0.0721 | 0.000407
GMPR2 | SID364000206 | 0.091 | 0.215 | 0.161 | 0.0373
ATP5MF | SID363995839 | 0.145 | 0.123 | 0.299 | 0.0258
MMP17 | SID363999916 | 0.0641 | 0.132 | 0.226 | 0.0149
MIP | SID363998018 | 0.115 | 0.184 | 0.286 | 0.0437
CD151 | SID363995343 | 0.0684 | 0.449 | 0.288 | 0.0125
TRERF1 | SID364004384 | 0.0903 | 0.355 | 0.389 | 0.0417
CSTF1 | SID363992605 | 0.1 | 0.124 | 0.358 | 0.0223
CRABP1 | SID363995363 | 0.0501 | 0.181 | 0.349 | 0.0139
ASH1L | SID364001115 | 0.122 | 0.454 | 0.374 | 0.0107
UFC1 | SID364000090 | 0.206 | 0.151 | 0.361 | 0.0203
ACADS | SID363991356 | 0.114 | 0.276 | 0.262 | 0.0173
GCC2 | SID364004931 | 0.151 | 0.192 | 0.385 | 0.0355
CENPH | SID364002599 | 0.087 | 0.424 | 0.118 | 0.0166
F11 | SID363991464 | 0.125 | 0.263 | 0.245 | 0.0265
PDLIM5 | SID363997265 | 0.0542 | 0.11 | 0.369 | 0.00199
IL7R | SID363993386 | 0.0885 | 0.128 | 0.221 | 0.0503
FLJ21369 (retired record) | SID364005543 | 0.111 | 0.299 | 0.342 | 0.0446
TEC | SID363994344 | 0.0797 | 0.0659 | 0.223 | 0.00555
DCAF7 | SID363996703 | 0.186 | 0.111 | 0.288 | 0.0852
MAS1 | SID363993557 | 0.122 | 0.0552 | 0.315 | 0.0295
GLI4 | SID364004562 | 0.0911 | 0.237 | 0.325 | 0.00334
CLDN16 | SID363997371 | 0.0997 | 0.0769 | 0.287 | 0.0385
GPR27 | SID364001295 | 0.443 | 0.737 | 1.39 | 0.111
